Patent publication US5849477
For at least one entry, the source does not settle the construct or the ends of the probe. For part of these data: Negatives hold for the conditions tested. For part of these data: A weaker result is weaker than the reference pair of the same experiment. For part of these data: Where cells or extracts were used, other partners may take part.

Chains of the proteins cited; added tags and fusions are not shown. Chains listed by the source or under a name are the forms on record and can include a tag or linker.
COUP-TF beta-galactosidase fusion (lambda gt11 clone) (Homo sapiens), one chain, as listed by the source: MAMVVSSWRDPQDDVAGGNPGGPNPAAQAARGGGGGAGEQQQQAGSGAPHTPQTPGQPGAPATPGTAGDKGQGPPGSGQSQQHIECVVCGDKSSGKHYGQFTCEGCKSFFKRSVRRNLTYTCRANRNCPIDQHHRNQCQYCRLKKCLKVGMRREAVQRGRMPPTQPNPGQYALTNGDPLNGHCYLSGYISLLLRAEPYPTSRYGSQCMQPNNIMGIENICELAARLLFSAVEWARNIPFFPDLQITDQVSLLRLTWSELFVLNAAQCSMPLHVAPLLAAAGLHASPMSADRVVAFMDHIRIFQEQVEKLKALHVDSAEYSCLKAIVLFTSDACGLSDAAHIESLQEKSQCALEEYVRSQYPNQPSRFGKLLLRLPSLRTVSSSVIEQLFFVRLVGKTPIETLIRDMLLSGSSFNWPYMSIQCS

Assays:
[1] = system: COUP-TF beta-galactosidase fusion (lambda gt11 clone) (Homo sapiens); test: competition with a labelled probe; conditions: unlabeled oligo abolished complexes with ovalbumin probe; protein in a lysate after overexpression
[2] = system: progesterone receptor; test: competition with a labelled probe; conditions: [-]; 100-fold molar excess COUP oligo did not compete for PR binding to its cognate element; letters built from the parent sequence and the stated change
[3] = system: estrogen receptor; test: footprint; conditions: weak DNase I footprint distinct from COUP-TF, vast excess of receptor, 100-fold molar excess COUP oligo did not compete for ER binding to its cognate element, letters built from the parent sequence and the stated change

TCTATGGTGTCAAAGCTCAAACTTCTGA (double strand) [ovalbumin COUP wild-type oligonucleotide (-91 to -64)]
binding result [1]: binds

TATGGTGTCAAAGGTCAAACTT (double strand) [COUP oligonucleotide (ovalbumin), ER/PR experiments]
binding result [2]: no binding
binding result [3]: binds more weakly
